Results reported in the supplement of paper PMC10849652.
This is one part of the list.

The chains behind the UniProt entries cited, without tags or fusion partners. Where a name states a change or a piece, a line headed by the entry shows the natural chain unless it says otherwise.
UniProt Q6UXH1: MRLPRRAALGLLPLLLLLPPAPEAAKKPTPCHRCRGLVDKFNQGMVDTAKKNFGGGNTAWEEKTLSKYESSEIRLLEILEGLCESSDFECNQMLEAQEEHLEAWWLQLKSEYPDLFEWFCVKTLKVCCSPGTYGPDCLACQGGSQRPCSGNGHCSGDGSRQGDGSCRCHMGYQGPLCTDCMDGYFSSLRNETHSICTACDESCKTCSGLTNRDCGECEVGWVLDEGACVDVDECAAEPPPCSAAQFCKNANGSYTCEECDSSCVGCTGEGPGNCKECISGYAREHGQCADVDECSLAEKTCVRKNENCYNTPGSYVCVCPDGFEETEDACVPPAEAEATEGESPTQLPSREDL
UniProt P31327: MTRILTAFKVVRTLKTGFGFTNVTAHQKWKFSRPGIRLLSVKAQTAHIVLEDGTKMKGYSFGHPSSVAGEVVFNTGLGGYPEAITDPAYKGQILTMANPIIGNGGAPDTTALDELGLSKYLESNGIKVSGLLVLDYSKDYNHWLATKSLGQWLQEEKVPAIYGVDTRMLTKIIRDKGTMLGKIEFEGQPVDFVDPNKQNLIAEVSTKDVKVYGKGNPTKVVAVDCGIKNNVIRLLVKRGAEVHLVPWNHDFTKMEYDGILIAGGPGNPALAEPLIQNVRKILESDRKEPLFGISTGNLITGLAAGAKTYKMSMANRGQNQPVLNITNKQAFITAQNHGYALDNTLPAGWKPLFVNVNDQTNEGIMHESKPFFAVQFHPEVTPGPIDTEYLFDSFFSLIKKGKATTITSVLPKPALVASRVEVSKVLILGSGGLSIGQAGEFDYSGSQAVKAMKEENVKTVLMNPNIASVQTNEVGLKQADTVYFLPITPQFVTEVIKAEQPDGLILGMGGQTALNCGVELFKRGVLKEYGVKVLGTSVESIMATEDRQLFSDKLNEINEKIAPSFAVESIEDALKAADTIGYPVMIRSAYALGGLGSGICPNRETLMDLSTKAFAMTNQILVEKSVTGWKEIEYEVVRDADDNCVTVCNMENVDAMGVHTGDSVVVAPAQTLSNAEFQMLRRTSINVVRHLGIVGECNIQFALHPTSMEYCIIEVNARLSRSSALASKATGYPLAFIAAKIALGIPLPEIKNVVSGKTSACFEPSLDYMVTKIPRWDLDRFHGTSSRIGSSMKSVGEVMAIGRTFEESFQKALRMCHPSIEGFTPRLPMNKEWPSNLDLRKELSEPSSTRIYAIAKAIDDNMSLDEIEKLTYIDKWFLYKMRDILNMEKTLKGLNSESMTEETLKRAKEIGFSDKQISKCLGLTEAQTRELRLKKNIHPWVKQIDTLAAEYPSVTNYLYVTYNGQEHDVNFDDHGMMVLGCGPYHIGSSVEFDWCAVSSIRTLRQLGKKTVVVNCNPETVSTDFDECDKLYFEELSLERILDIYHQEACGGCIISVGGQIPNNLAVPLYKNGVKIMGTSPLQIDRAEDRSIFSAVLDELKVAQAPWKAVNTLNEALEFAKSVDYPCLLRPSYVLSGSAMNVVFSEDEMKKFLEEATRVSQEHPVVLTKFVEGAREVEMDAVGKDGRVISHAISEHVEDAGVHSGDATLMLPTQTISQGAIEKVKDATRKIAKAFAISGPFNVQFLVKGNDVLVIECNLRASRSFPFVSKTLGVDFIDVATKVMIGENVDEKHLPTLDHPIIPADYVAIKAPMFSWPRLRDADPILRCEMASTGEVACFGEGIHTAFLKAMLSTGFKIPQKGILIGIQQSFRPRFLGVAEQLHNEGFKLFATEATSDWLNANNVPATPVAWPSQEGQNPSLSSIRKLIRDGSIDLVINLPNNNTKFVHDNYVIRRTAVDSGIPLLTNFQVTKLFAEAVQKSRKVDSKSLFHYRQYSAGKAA
UniProt P21964: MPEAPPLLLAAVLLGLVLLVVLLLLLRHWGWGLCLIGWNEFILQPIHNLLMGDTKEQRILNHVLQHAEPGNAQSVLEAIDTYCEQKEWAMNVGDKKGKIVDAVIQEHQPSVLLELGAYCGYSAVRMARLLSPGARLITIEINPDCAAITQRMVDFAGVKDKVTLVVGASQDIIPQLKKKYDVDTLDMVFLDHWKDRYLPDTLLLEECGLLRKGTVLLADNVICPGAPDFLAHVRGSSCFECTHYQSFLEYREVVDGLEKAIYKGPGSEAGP
UniProt Q9UKF6: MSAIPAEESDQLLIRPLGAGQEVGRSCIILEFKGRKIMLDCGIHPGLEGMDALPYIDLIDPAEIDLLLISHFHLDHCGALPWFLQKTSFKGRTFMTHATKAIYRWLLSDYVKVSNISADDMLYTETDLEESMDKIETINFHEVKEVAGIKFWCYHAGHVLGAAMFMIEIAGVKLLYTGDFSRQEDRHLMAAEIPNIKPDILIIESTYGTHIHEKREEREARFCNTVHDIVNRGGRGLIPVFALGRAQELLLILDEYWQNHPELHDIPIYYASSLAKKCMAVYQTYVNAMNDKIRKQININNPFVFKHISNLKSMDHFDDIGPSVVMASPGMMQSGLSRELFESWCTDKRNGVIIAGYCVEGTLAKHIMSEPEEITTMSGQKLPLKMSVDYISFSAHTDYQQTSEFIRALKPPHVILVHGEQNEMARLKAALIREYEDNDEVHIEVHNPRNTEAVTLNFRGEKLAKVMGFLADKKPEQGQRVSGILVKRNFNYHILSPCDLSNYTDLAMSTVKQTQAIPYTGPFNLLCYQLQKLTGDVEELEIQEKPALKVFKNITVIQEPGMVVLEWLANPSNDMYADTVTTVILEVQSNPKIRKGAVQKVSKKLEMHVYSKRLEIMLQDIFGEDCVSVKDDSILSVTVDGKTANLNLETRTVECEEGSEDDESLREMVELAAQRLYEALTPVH
UniProt P67870, whole entry, looked up: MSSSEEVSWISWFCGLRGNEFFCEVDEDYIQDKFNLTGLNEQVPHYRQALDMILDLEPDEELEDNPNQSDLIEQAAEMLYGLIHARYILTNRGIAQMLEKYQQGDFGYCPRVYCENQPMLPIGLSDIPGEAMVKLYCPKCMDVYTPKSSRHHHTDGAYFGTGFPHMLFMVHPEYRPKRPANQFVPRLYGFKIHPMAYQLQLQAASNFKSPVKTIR
UniProt P41240: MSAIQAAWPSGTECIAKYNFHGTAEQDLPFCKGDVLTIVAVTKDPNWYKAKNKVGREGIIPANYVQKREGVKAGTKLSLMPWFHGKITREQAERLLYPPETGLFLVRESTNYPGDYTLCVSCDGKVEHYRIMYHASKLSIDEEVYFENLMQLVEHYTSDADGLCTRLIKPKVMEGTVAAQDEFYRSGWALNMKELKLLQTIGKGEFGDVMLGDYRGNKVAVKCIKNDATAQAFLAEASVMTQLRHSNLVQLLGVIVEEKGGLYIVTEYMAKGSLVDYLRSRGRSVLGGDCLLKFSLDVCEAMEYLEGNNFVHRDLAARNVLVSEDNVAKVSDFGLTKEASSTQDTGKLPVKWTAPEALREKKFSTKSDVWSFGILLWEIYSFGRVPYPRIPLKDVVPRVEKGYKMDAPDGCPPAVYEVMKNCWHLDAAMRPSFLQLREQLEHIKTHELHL
UniProt A4D126: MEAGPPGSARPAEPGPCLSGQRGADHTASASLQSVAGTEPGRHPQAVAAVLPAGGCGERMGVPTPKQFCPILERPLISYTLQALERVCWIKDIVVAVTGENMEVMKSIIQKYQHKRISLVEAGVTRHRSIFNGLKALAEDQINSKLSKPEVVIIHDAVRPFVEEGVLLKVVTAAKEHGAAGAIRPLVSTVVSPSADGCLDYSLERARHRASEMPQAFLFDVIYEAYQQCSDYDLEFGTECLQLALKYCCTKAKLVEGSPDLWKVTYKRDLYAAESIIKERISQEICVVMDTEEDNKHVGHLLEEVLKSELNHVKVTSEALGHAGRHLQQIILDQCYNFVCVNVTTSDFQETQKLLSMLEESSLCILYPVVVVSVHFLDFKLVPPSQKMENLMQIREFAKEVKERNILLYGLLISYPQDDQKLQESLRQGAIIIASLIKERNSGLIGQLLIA
UniProt P48730: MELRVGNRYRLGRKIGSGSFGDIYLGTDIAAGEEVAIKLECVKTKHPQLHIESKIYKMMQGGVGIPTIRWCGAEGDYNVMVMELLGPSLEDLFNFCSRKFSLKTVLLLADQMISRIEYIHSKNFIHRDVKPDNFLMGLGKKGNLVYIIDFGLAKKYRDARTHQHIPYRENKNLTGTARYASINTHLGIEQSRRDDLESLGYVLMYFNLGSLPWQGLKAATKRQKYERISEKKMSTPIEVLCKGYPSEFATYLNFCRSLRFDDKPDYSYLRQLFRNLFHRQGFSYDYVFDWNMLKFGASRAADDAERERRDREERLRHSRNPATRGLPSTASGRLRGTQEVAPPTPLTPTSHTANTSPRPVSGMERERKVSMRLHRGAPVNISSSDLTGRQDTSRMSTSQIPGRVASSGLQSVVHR
UniProt P53621: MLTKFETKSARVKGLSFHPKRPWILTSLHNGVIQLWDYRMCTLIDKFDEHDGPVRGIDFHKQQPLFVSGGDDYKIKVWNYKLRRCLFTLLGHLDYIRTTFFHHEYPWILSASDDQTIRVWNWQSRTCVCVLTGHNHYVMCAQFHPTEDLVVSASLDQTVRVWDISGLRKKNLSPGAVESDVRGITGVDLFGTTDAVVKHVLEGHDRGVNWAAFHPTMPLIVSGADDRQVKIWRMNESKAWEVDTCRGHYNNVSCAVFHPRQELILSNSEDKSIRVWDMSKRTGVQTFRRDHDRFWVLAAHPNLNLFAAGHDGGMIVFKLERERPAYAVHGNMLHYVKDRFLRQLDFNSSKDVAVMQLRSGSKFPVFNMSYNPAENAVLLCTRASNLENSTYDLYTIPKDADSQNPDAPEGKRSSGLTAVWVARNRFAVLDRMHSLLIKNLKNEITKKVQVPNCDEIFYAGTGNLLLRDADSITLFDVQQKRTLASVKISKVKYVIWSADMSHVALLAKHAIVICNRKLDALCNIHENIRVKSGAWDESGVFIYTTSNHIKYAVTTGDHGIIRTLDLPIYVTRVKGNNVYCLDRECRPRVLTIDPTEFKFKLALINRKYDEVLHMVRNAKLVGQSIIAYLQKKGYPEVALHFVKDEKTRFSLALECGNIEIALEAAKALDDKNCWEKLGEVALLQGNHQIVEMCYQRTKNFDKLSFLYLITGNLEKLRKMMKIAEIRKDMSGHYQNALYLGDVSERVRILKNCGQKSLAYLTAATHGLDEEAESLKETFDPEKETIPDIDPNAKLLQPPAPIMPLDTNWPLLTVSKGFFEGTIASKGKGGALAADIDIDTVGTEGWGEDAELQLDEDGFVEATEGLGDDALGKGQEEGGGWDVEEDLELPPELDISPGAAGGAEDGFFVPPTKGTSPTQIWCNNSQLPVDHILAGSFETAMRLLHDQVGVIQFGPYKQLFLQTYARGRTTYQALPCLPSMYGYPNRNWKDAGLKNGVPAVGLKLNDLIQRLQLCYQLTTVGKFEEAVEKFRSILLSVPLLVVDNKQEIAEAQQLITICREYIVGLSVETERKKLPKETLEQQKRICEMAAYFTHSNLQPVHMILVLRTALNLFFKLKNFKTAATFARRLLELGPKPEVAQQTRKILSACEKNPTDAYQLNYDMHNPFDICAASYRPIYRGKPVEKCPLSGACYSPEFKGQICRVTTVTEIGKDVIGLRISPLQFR
UniProt Q9Y2Z9: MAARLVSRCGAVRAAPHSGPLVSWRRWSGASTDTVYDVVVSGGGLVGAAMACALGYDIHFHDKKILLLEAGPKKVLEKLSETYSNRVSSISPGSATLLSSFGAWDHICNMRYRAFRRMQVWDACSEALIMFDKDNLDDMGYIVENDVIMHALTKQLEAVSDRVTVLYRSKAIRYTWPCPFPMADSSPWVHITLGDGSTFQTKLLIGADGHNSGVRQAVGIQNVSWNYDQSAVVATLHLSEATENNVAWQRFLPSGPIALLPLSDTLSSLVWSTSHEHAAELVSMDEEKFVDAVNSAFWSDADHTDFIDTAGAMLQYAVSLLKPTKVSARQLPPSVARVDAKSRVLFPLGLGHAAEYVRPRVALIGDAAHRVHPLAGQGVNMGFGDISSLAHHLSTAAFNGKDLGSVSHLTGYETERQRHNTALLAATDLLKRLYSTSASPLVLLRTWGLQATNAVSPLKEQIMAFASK
UniProt O14548: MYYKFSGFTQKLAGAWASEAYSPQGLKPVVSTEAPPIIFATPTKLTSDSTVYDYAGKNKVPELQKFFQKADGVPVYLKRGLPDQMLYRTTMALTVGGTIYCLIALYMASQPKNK
UniProt Q5RI15: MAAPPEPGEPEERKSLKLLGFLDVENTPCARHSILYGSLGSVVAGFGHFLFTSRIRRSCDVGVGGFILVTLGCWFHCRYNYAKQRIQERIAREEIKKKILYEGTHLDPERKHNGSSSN
UniProt Q9NQ92: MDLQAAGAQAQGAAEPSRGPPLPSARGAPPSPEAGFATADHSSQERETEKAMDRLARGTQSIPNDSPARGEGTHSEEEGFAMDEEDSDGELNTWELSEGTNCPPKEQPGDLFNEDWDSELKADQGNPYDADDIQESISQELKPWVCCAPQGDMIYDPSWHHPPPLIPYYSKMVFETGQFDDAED
UniProt Q9P021, whole entry, looked up: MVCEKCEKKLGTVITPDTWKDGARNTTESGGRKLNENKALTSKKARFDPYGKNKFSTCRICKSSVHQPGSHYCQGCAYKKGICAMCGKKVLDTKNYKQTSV

Columns and labels:
Assay in all cases: log2 fold change, soluble protein after heating vs DMSO (PISA); higher = thermal stabilisation; K562 cells, 10 uM, 30 min; active = over 0.2 and 3.5 SD of the protein, either way, in both replicates (recomputed)
[1] = compound: C1=CC=C(C=C1)[C@H](COC2=CC3=C(C=C2)NC(=O)N3)NC(=O)C4=CC=CN(C4=O)CC5=CC(=C(C=C5)F)F
Procedure, shortened: (§1)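 K562 cells at 2×10^6 cells/mL were exposed to 10 μM compound for 30 min, then aliquots were heated for 3 min across 48°C-58°C, pooled, and extracted in PBS containing 0.5% NP-40 at 4°C. The supernatant after 21,000xg for 90 min was taken as soluble protein and measured by TMTpro 16plex LC-MS/MS with channel sums equalised. Thermal stability is reported relative to control samples, with values from duplicates. Fold changes are given on a log2 scale.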

[2] = compound: CC1=C(SC2=C1C(=N[C@H](C3=NN=C(N32)C)CC(=O)N)C4=CC=C(C=C4)Cl)C
Procedure, shortened: as §1

[3] = compound: CC1=C2C(=CC=C1)N=C(N(C2=O)C3=CC=CC=C3C)CN4C=NC5=C(N=CN=C54)N
Procedure, shortened: as §1

[4] = compound: Cc1sc2c(c1C)C(c1ccc(Cl)cc1)=N[C@@H](CC(=O)OC(C)(C)C)c1nnc(C)n1-2
Procedure, shortened: as §1

[5] = compound: c1ccc([C@@H]2C[C@H]2NC2CCNCC2)cc1
Procedure, shortened: as §1

Measured: log2 fold change

COX5A (UniProt P20674)
inactive: [1] 0.016 | [2] 0.059 | [3] 0.037 | [4] -0.075 | [5] -0.043

CPNE2 (UniProt Q96FN4)
inactive: [1] -0.065 | [2] 0.036 | [3] 0 | [4] 0.088 | [5] -0.037

CRELD2 isoform 5 (UniProt Q6UXH1)
inactive: [1] -0.063 | [2] 0.037 | [3] -0.049 | [4] -0.028 | [5] -0.012

CPS1 isoform 3 (UniProt P31327)
inactive: [1] -0.143 | [2] 0.135 | [3] 0.21 | [4] 0.032 | [5] -0.228

CREB3L2 (UniProt Q70SY1)
inactive: [1] 0.331 | [2] -0.15 | [3] 0.296 | [4] -0.143 | [5] -0.247

COX7A2 (UniProt P14406)
inactive: [1] 0.021 | [2] 0.082 | [3] 0.044 | [4] -0.049 | [5] 0.064

CPSF7 isoform 3 (UniProt Q8N684)
inactive: [1] 0.007 | [2] 0.013 | [3] -0.012 | [4] 0.017 | [5] -0.013

COPS7A (UniProt Q9UBW8)
inactive: [1] -0.008 | [2] 0.073 | [3] 0.036 | [4] 0.001 | [5] -0.007

CRACR2A isoform 2 (UniProt Q9BSW2)
inactive: [1] 0.045 | [2] 0.034 | [3] 0.078 | [4] 0.001 | [5] -0.023

CREB1 (UniProt P16220)
inactive: [1] 0.016 | [2] 0.016 | [3] -0.024 | [4] -0.012 | [5] -0.041

COMT (UniProt P21964)
inactive: [1] 0.024 | [2] 0.142 | [3] 0.09 | [4] -0.028 | [5] -0.038

CRTC3 (UniProt Q6UUV7)
inactive: [1] -0.083 | [2] 0.044 | [3] -0.065 | [4] 0.004 | [5] 0.034

COPS5 (UniProt Q92905)
inactive: [1] -0.018 | [2] 0.041 | [3] -0.02 | [4] -0.056 | [5] -0.028

COX6B1 (UniProt P14854)
inactive: [1] 0.007 | [2] 0.141 | [3] 0.003 | [4] -0.153 | [5] -0.054

CPSF3 (UniProt Q9UKF6)
inactive: [1] -0.016 | [2] 0.024 | [3] 0.036 | [4] -0.026 | [5] 0.009

CRIP2 isoform 2 (UniProt P52943)
inactive: [1] 0.061 | [2] -0.22 | [3] 0.034 | [4] 0.069 | [5] 0.03

CPVL (UniProt Q9H3G5)
inactive: [1] -0.011 | [2] 0.077 | [3] 0.135 | [4] 0.067 | [5] 0.056

COPS2 (UniProt P61201)
inactive: [1] 0.014 | [2] 0.036 | [3] 0.023 | [4] -0.029 | [5] 0.005

CPEB2 isoform 9 (UniProt Q7Z5Q1)
inactive: [1] -0.075 | [2] 0.009 | [3] -0.296 | [4] -0.108 | [5] -0.012

COPS8 (UniProt Q99627)
inactive: [1] 0.002 | [2] 0.086 | [3] 0.039 | [4] -0.123 | [5] -0.014

CRYZ (UniProt Q08257)
inactive: [1] 0.025 | [2] 0.026 | [3] 0.059 | [4] -0.046 | [5] -0.012

COMMD10 (UniProt Q9Y6G5)
inactive: [1] -0.023 | [2] 0.084 | [3] -0.018 | [4] -0.072 | [5] -0.074

COX18 (UniProt Q8N8Q8)
inactive: [1] 0.045 | [2] 0.031 | [3] 0.053 | [4] -0.007 | [5] -0.004

COX5B (UniProt P10606)
inactive: [1] 0.015 | [2] 0.104 | [3] -0.006 | [4] -0.126 | [5] -0.099

COQ7 (UniProt Q99807)
inactive: [1] -0.038 | [2] 0.016 | [3] 0.029 | [4] 0.014 | [5] 0.048

CSNK2B (UniProt P67870)
inactive: [1] -0.047 | [2] 0.043 | [3] 0 | [4] -0.028 | [5] 0.018

CSE1L (UniProt P55060)
inactive: [1] -0.024 | [2] 0.063 | [3] 0.033 | [4] -0.028 | [5] -0.009

CSK (UniProt P41240)
inactive: [1] -0.096 | [2] 0.051 | [3] 0.057 | [4] 0.011 | [5] -0.032

CRPPA (UniProt A4D126)
inactive: [1] -0.002 | [2] 0.076 | [3] 0.028 | [4] -0.041 | [5] 0.02

CRTAP (UniProt O75718)
inactive: [1] 0.057 | [2] -0.063 | [3] 0.079 | [4] -0.013 | [5] -0.037

CRBN (UniProt Q96SW2)
inactive: [1] -0.004 | [2] 0.017 | [3] 0.021 | [4] -0.031 | [5] 0.143

COQ9 (UniProt O75208)
inactive: [1] -0.068 | [2] -0.025 | [3] 0.053 | [4] -0.081 | [5] 0.036

CPSF6 isoform 2 (UniProt Q16630)
inactive: [1] 0.036 | [2] -0.038 | [3] 0.048 | [4] 0.02 | [5] -0.016

CSNK1D (UniProt P48730)
inactive: [1] -0.08 | [2] -0.067 | [3] -0.192 | [4] -0.011 | [5] -0.015

CSNK1A1L (UniProt Q8N752)
inactive: [1] -0.056 | [2] -0.169 | [3] -0.033 | [4] 0.042 | [5] 0.216

COLGALT2 (UniProt Q8IYK4)
inactive: [1] 0.061 | [2] -0.036 | [3] 0.003 | [4] 0.032 | [5] -0.035

COPG2 (UniProt Q9UBF2)
inactive: [1] -0.008 | [2] 0.056 | [3] 0.047 | [4] 0.002 | [5] -0.019

COPS6 (UniProt Q7L5N1)
inactive: [1] -0.028 | [2] 0.02 | [3] -0.028 | [4] -0.003 | [5] 0.016

COPA isoform 2 (UniProt P53621)
inactive: [1] -0.017 | [2] 0.032 | [3] 0.038 | [4] -0.012 | [5] -0.011

COQ6 (UniProt Q9Y2Z9)
inactive: [1] 0.023 | [2] 0.047 | [3] -0.022 | [4] -0.017 | [5] -0.032

CORO1B (UniProt Q9BR76)
inactive: [1] -0.033 | [2] 0.053 | [3] 0.09 | [4] -0.022 | [5] -0.04

COX7A2L (UniProt O14548)
inactive: [1] 0.05 | [2] 0.115 | [3] 0.099 | [4] -0.102 | [5] 0.04

CRELD1 isoform 2 (UniProt Q96HD1)
inactive: [1] -0.147 | [2] -0.01 | [3] 0.24 | [4] 0.139 | [5] 0.042

COX20 isoform 2 (UniProt Q5RI15)
inactive: [1] 0.071 | [2] 0.05 | [3] 0 | [4] -0.022 | [5] 0.042

CSNK2A2 (UniProt P19784)
inactive: [1] -0.025 | [2] 0.08 | [3] 0.052 | [4] 0.028 | [5] 0.012

COPZ1 isoform 4 (UniProt P61923)
inactive: [1] 0.016 | [2] 0.126 | [3] 0.014 | [4] -0.153 | [5] -0.083

COX4I1 (UniProt P13073)
inactive: [1] 0.032 | [2] -0.016 | [3] -0.031 | [4] 0.004 | [5] 0.005

COPRS (UniProt Q9NQ92)
inactive: [1] -0.044 | [2] 0.035 | [3] 0.006 | [4] -0.019 | [5] -0.018

CRIPT (UniProt Q9P021)
inactive: [1] 0.024 | [2] -0.025 | [3] 0.122 | [4] -0.009 | [5] 0.024

CPQ (UniProt Q9Y646)
inactive: [1] 0.045 | [2] -0.077 | [3] -0.078 | [4] -0.031 | [5] 0.084

COTL1 (UniProt Q14019)
inactive: [1] -0.055 | [2] 0.062 | [3] 0.01 | [4] -0.023 | [5] -0.041

CPT2 (UniProt P23786)
inactive: [1] -0.402 | [2] 0.19 | [3] 0.155 | [4] -0.017 | [5] -0.026
